Measurements from PubChem BioAssay AID2417 (National Center for Advancing Translational Sciences (NCATS), 2010).
About 4,300 (3.1%) of roughly 140,000 compounds were called active. Inconclusive results, whose numbers are uncertain, are shown with a selection of clear calls.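 Rule for the calls: active = readout at or below -70, meaning at least 70% loss of cells showing the perinucleolar compartment, a nuclear body marking cancer cells; inconclusive = readout between -30 and a set limit; inactive = the rest.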

Assay: High Content Assay for Compounds that inhibit the Assembly of the Perinucleolar Compartment;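 note: plate controls were DMSO wells for no effect and camptothecin positive control wells for full effect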
Details: PC3M PTB-GFP, PNC prevalence imaging, 16 h; at 10 µM; hits give low values
Outline: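 Read-out is percentage of cells bearing a perinucleolar compartment, from automated 20x imaging of fixed, Hoechst-stained PC3M PTB-GFP cells. Cells were seeded 4 h, then exposed 16 h to compound (23 nl of library stock) in duplicate plates.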

SMILES	activity change (PNC), negative = inhibition
O=C1S/C(=C/c2ccc(N3CCOCC3)o2)C(=O)N1Cc1c(F)cccc1Cl	inactive: -27.5%
Cc1cc(C)nc(N/N=C/c2ccccc2OCc2ccc(Br)cc2)n1	inactive: -19.3%
CSc1nc(-c2ccccc2)nn1C(=O)c1ccc(C)cc1	inconclusive: -60.2%
CC(C)NC(=O)c1cccc(C(F)(F)F)c1	inconclusive: -60.4%
CCCOc1ccc(-c2nc(N)n[nH]2)cc1	inconclusive: -45.9%
COC(=O)Cn1nc(-c2ccccc2)n(-c2ccccc2)c1=S	inactive: -11.1%
Cc1ccc(-c2nnc(NCc3ccccc3)c3ccccc23)cc1	inconclusive: -38.4%
CCNc1nc(NCC)n2c(SCC(=O)O)nnc2n1	inconclusive: -55%
N#Cc1nc(-c2ccco2)oc1N1CCC(Cc2ccccc2)CC1	inactive: -13.2%
Nc1cc(C(=O)O)ccc1Nc1ccccc1	inconclusive: -58.5%
CCCS(=O)(=O)C(=C(Nc1ccccc1)Nc1ccccc1)S(=O)(=O)CCC	inconclusive: -43.8%
Cc1ccc(OCCN2CCN(C)CC2)c([N+](=O)[O-])c1	inconclusive: -32.4%
N=c1c(C(=O)NCc2ccc(F)cc2)cc2c(=O)n3ccccc3nc2n1CCCN1CCOCC1	inconclusive: -42.7%
Cn1c(N)c(C(=O)COC(=O)c2cc(-c3ccco3)nc3ccccc23)c(=O)n(C)c1=O	inactive: 51.6%
C=C(C)Cn1c(COc2ccccc2)nnc1SCC(=O)O	inconclusive: -39.2%
CCOC(=O)c1ccc2c(c1)nc(COc1ccccc1C#N)n2CC	inconclusive: -43%
CCOc1cc(C(=O)NC(C)c2ccncc2)cc(OCC)c1OCC (stereo unspecified)	inconclusive: -48.7%
Cc1cc2nc(C)n(CCCNC(=O)Nc3cccc4ccccc34)c2cc1C	inconclusive: -55.9%
Cc1nn(C)cc1CNC(=O)/C=C/c1cnn(C)c1	active: -109%
CCOc1ccc(C(C)=O)cc1N1C(=O)C2C3C=CC(C3)C2C1=O (stereo unspecified)	inconclusive: -54.8%
COc1ccc(O[C@H]2C=C[C@@H](c3ccccc3)O[C@@H]2CO/N=C(\C)CCC(=O)OC[C@H]2O[C@H](c3ccccc3)C=C[C@@H]2Oc2ccc(OC)cc2)cc1	inactive: 50.1%
FCCCOc1ccc(-c2nccc(-c3ccc(Cl)cc3)n2)cc1	inconclusive: -52.5%
CC(C)C(=O)Nc1ccc2c3c(cccc13)CC2	inconclusive: -52.3%

SMILES	activity change (PNC), negative = inhibition
O=C(CCn1nc(-c2ccccc2)ccc1=O)N1CCN(c2ccccn2)CC1	inactive: 31.5%
Cc1ccc(CNC(=O)COC(=O)c2cc3c(s2)CCC(C)C3)cc1 (stereo unspecified)	inactive: -12.3%
O=C(NC(=S)Nc1cc(Cl)ccc1N1CCOCC1)c1ccc(-c2cccc(Cl)c2)o1	inconclusive: -59.1%
CCOC(=O)c1sc(NC(=O)COc2ncnc3ccccc23)c(C(=O)OCC)c1C	active: -95.9%
O=C(Cc1ccccc1)NN1C(=O)C2C3C=CC(C3)[C@@H]2C1=O (stereo partly specified)	inconclusive: -41.6%
O=C(CSc1ccc2c(c1)OCCO2)NCCc1ccc(Cl)cc1Cl	inconclusive: -52.2%
COC(=O)NCc1ccc(S(=O)(=O)N2CCOCC2)cc1	inconclusive: -38.9%
COc1ccc(CNC(=O)c2sc3nc4c(c(C(F)(F)F)c3c2N)CCC4)cc1OC	inconclusive: -60.1%
CCO/C=C/C(=O)N(C)CCC#N	inconclusive: -41.7%
CC(c1ccccc1)N1CNc2c(c(=O)n(C)c(=O)n2C)C1 (stereo unspecified)	inconclusive: -36.1%
CN(C)S(=O)(=O)c1ccc(NC(=O)N2CCN(c3ccccc3Cl)CC2)cc1	inconclusive: -50.1%
COc1cc(/C=C/C(=O)OCC(=O)c2c[nH]c3ccccc23)ccc1OC(F)F	inactive: 48%
O=C(COc1ccc(Br)cc1)N/N=C1\SCC(=O)N1c1ccc(F)cc1	inactive: 14.9%
CCc1nc2c(nnn2Cc2ccc(F)cc2)c(=O)[nH]1	inconclusive: -51.8%
CCOC(=O)Cc1csc(NC(=O)c2ccc(S(=O)(=O)N3CCCC3)cc2)n1	inactive: 25.6%
C=CCNc1cc(C)oc(=O)c1C(=O)CCC	inactive: 13.7%
O=C(NCc1ccccc1)C1CCC1	inconclusive: -71.8%
Cc1onc(-c2c(F)cccc2Cl)c1C(=O)NC(=S)NC1CCS(=O)(=O)C1 (stereo unspecified)	inactive: 4.21%
O=C(NCc1ccccc1)C1CCN(S(=O)(=O)c2cccc3cccnc23)CC1	inactive: 1.09%
Cc1ccc(CCN2CC(C(=O)NC3CCCC3)CC2=O)cc1 (stereo unspecified)	inconclusive: -43.6%
CCOC(=O)N1CCC(NC(=O)CCN2C(=O)C3C4C=CC(C4)C3C2=O)CC1 (stereo unspecified)	active: -101%
CC(=NC1CC1)C1=C(O)c2ccccc2C1=O	inconclusive: -57.7%
O=C1COc2ccc(C(=O)c3ccccc3)cc2CN1	inactive: 16.1%

Some values from the list:
O=C(NCc1ccccc1)C1CCC1 | activity change (PNC), negative = inhibition: inconclusive: -71.8%
O=C(CCn1nc(-c2ccccc2)ccc1=O)N1CCN(c2ccccn2)CC1 | activity change (PNC), negative = inhibition: inactive: 31.5%
CN(C)S(=O)(=O)c1ccc(NC(=O)N2CCN(c3ccccc3Cl)CC2)cc1 | activity change (PNC), negative = inhibition: inconclusive: -50.1%
O=C(NC(=S)Nc1cc(Cl)ccc1N1CCOCC1)c1ccc(-c2cccc(Cl)c2)o1 | activity change (PNC), negative = inhibition: inconclusive: -59.1%
CC(c1ccccc1)N1CNc2c(c(=O)n(C)c(=O)n2C)C1 (stereo unspecified) | activity change (PNC), negative = inhibition: inconclusive: -36.1%
O=C(COc1ccc(Br)cc1)N/N=C1\SCC(=O)N1c1ccc(F)cc1 | activity change (PNC), negative = inhibition: inactive: 14.9%

(cont.)

SMILES	activity change (PNC), negative = inhibition
CC(/C=C/c1cccc([N+](=O)[O-])c1)=N\NC(=O)c1ccncc1	inconclusive: -31.1%
COCCNC(=O)c1nc2c(nnn2Cc2cc(C)ccc2C)c(=O)[nH]1	inconclusive: -64.7%
Cn1c[n+](C)cc1-c1ccc(/C(N)=N/O)cc1	active: -80.3%
O=C(c1ccco1)c1cn[nH]c1-c1ccc(Cl)cc1O	inactive: -0.729%
CCc1ccc(NC(=O)c2ccc(C3SCC(=O)N3CCc3ccccc3)cc2)cc1 (stereo unspecified)	inactive: -3.01%
C/C(=N\NC(=O)c1ccc(C)cc1C)c1ccc2c(c1)Nc1ccccc1S2	inactive: -9.25%
Cc1ccc(C(=O)c2cc3c(cc2N)OCCO3)cc1	inconclusive: -39.7%
CCN1CCN(C2=C(Cl)C(=O)N(Cc3ccccc3)C2=O)CC1	inconclusive: -45.7%
CCc1ccc(-c2nc(-c3ccncc3)no2)cc1	inactive: -2.37%
O=C(CNC(=O)c1ccncc1)N/N=C/c1cc(Br)ccc1O	inactive: 15.4%
Cc1cc(Cl)ccc1OC(C)C(=O)NCCc1ccc2c(c1)OCCO2 (stereo unspecified)	inconclusive: -35.6%
CNC(=O)NC(=O)COC(=O)c1ccc(-n2c(C)ccc2C)cc1	active: -115%
C[N+]1(CCCCCCC(=O)/C=N/O)CCCCCC1	inconclusive: -35.4%
COc1cc(CN2CCN(c3ccc(C)cc3)CC2)cc([N+](=O)[O-])c1O	inconclusive: -32.9%
COc1ccccc1Cn1nnc2c(=O)[nH]c(C3CCN(C(=O)c4ccccc4Cl)CC3)nc21	inactive: -23.9%
Fc1cccc(-c2cc3nc4c(c(N5CCOCC5)n3n2)CCCC4)c1	active: -91%
O=c1[nH]c(=O)n([C@H]2C[C@H](O)[C@@H](CO)O2)cc1C(F)(F)F	inconclusive: -69.4%
CCNC(=S)NNC(=O)c1csc(C)c1	inconclusive: -39.7%
Cc1c(C(=O)Nc2cccc(Cl)c2)c2ccccn2c1CCc1ccncc1	inactive: -17.7%
O=C(COC(=O)c1cccc(S(=O)(=O)N2CCOCC2)c1)Nc1ccc2c(c1)OCO2	active: -100%
COc1cc(NC(=O)C2CCCN2S(=O)(=O)c2cccc3cccnc23)cc(OC)c1OC (stereo unspecified)	inconclusive: -69.6%
CN(C(=O)c1cccc(COc2ccc(Cl)cc2Cl)c1)c1ccccc1	inactive: 26.9%
O=C(/C=C/c1ccc2c(c1)OCO2)NCCSCc1c(Cl)cccc1Cl	inactive: -21.4%

SMILES	activity change (PNC), negative = inhibition
COCCn1c(SCc2ccc(C(=O)OC)o2)nc2ccccc2c1=O	inactive: 24%
CCOC(=O)C1=C(C)NC2=C(C(=O)CC(C)(C)C2)C1c1cccc(C)n1 (stereo unspecified)	inconclusive: -37.5%
CCCCCCCCNC(C)C(O)c1ccc(SC(C)C)cc1 (stereo unspecified)	active: -115%
CC1CCCN(Cc2nc3c(c(=O)n(C)c(=O)n3C)n2CC(N)=O)C1 (stereo unspecified)	inconclusive: -41.8%
COc1ccc(CNc2ncnc(N)n2)cc1	active: -101%
CC1(C)Cc2cccc(OCC(=O)N3CCN(S(=O)(=O)c4ccccc4)CC3)c2O1	inactive: 19.4%
COc1cccc(NC(=O)CN2C(=O)C3(OCCCO3)c3ccccc32)c1	inactive: -3.28%
Cn1cc(C(=O)c2ccc(F)cc2)cc1-c1nc2ccccc2n1C	inconclusive: -76.8%
CCOC(=O)C(=O)Nc1nnc(CCc2ccccc2)s1	active: -100%
CC(C)(C)c1ccc(-c2csc(NNC3=NCCCCC3)n2)cc1	inactive: 30.5%
O=C(Nc1cnn(C23CC4CC(CC(C4)C2)C3)c1)c1cnn2c(C(F)(F)F)cc(-c3ccco3)nc12	inactive: 7.41%
Cc1c(C(=O)N2CCCCCC2)oc2ccccc12	inactive: 25.6%
CC(=O)Nc1ccc(S(=O)(=O)Nc2c(C)n(C)n(-c3ccccc3)c2=O)cc1	inconclusive: -52.5%
COc1ccccc1NC(=O)CN1C(=O)C2(OCCCO2)c2ccccc21	inactive: 42.5%
O=C(Oc1oc(-c2ccco2)nc1C=Nc1ccccc1)c1ccoc1	inconclusive: -34.8%
CCOc1nonc1C(=N)/C(C(C)=O)=C(\C)O	inactive: -23.5%
CCOC(=O)c1ccc(NC(=S)N(CCCN(CC)CC)Cc2ccco2)cc1	inactive: -12.6%
NC(=O)CSc1ncnc2c1cnn2Cc1ccccc1	inconclusive: -35.8%
CCOC(=O)CCn1cc(F)c(=O)n(Cc2ccccc2)c1=O	inactive: 20.8%
CCOc1ccc(-c2cc(N3C(=O)Nc4ccccc4N3O)on2)cc1	inconclusive: -44.4%
Cc1cnc(C(=O)Nc2cc(S(=O)(=O)N3CCOCC3)ccc2N2CCN(C)CC2)cn1	inconclusive: -61.8%
O=C(NN=C1C2CC3CC(C2)CC1C3)c1cc(Cl)ccc1O	inactive: 19.1%
